Data as given in patent publication EP0050799B1, “New processes for the production of di-alkyl esters and optically active mono-alkyl esters of 3-aminoglutaric acid” (ZAIDAN HOJIN BISEIBUTSU KAGAKU KENKYU KAI, priority 1980, dated 1982).
For at least one compound, name, drawing or mass did not settle the structure.

Test system: Staphylococcus aureus
Assay: antibacterial activity test (minimum concentration inhibitory to growth)
Format: cell-based
Conditions: general statement in words

CCOC(=O)C[C@H](N)CC(=O)O [Example 7, β-(R)-Aminoglutaric acid mono-ethyl ester]
antibacterial activity against Gram-positive bacteria, particularly against Staphylococcus aureus: exhibit an antibacterial activity
